The text below walks through data of article PMC6140319.

The chains behind the UniProt entries cited, without tags or fusion partners. Where a name states a change or a piece, a line headed by the entry shows the natural chain unless it says otherwise.
UniProt Q38B80: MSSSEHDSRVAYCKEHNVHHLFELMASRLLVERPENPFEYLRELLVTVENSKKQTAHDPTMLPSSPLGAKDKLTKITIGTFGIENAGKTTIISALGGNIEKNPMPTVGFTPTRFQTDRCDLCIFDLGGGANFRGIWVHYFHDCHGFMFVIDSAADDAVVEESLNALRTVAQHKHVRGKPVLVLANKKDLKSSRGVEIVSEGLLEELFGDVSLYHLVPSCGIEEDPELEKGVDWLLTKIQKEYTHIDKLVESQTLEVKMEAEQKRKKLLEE

This experiment deals with FL-YFP (full length TbArl13 fused to YFP) (Trypanosoma brucei) (UniProt Q38B80). The experiment can be described thus: co-IP; GFP-nAb beads incubated with lysates from cells expressing FL-YFP, DD-YFP, CD-YFP or YFP alone; native TbArl13 detected with anti-TbArl13 antibody in input, IP and unbound fractions.

These are yes or no findings as the source states them, for the method shown. Binding seen in cells or lysates may run through a third protein. Binding calls can cover weak binding; strength is not graded here.

Regarding “endogenous TbArl13 (Trypanosoma brucei Arl13b ortholog, Tb927.10.5230) (from UniProt Q38B80)”, the binding entry was “binds”.
